Assay results published in publication PMC3095642, “New Synthetic Thrombin Inhibitors: Molecular Design and Experimental Verification” (PLoS ONE, 2011).

What was measured:
Human thrombin = Human thrombin (Homo sapiens, UniProt P00734); assay: Thrombin induced hydrolysis of specific substrates in buffer system; conditions: chromogenic substrate (SCHR), tested form: iodide
[1] = molecular target: thrombin generation in normal donor plasma (PPP) (Homo sapiens, UniProt P00734); assay: Thrombin generation test in plasma (endogenous thrombin potential, ETP); conditions: ratio of IC50 for ETP reduction in plasma to Ki in buffer system; tested form: iodide

Cc1cc(OCC[n+]2ccc(N)nc2)cc(OS(=O)(=O)c2ccccc2)c1
pIC50 (Human thrombin; read-out: Inhibition of thrombin activity (in buffer system) IC50): 6.23
pKi (Human thrombin; read-out: Inhibition of thrombin activity (in buffer system) Ki, calculated assuming competitive type of inhibition): 7.29
IC50(ETP)/Ki [1]: 49.2

pIC50, pKi: −log10 of the molar value. The structures given here were assigned with low confidence; some may be wrong.
